Consider two substances from paper PMC8120205.

The chains behind the UniProt entries cited, without tags or fusion partners.
UniProt Q9BQA1: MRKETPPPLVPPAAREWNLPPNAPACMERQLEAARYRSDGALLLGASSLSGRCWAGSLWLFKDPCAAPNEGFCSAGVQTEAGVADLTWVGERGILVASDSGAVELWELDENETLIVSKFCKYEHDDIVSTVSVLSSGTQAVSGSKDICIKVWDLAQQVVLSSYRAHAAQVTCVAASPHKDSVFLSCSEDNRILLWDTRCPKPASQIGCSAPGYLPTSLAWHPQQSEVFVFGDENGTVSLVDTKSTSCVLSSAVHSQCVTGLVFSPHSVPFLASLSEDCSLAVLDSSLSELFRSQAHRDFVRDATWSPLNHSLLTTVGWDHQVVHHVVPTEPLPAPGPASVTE
UniProt O14744: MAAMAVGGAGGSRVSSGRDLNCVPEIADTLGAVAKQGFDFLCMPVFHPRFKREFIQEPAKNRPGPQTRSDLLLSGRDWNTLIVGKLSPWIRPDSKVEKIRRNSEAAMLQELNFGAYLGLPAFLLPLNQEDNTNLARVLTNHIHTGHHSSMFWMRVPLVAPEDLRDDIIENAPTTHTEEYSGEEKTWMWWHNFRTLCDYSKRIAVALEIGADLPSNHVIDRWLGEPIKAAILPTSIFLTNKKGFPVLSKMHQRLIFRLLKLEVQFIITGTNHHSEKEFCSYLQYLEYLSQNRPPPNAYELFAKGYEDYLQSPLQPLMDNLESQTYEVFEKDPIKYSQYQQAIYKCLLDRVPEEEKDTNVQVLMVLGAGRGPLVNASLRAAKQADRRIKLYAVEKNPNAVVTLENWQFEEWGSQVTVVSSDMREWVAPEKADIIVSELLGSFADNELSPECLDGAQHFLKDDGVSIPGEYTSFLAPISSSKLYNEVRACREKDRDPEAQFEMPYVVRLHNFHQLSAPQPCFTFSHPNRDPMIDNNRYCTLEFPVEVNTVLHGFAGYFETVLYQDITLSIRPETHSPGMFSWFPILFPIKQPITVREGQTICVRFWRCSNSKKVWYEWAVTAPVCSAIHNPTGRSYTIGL

No constants are given. Whether binding was seen depends on the method and setting. In cells and extracts the contact can be indirect. A yes stands for co-enrichment or nearness to the bait. Other partners may have been found. Sequences can lack the tags named with a protein.

In the experiment the target is T1, FLAG-tagged MYOCD (MYOCD 3×FLAG) (UniProt Q8IZQ8).
T1 sequence: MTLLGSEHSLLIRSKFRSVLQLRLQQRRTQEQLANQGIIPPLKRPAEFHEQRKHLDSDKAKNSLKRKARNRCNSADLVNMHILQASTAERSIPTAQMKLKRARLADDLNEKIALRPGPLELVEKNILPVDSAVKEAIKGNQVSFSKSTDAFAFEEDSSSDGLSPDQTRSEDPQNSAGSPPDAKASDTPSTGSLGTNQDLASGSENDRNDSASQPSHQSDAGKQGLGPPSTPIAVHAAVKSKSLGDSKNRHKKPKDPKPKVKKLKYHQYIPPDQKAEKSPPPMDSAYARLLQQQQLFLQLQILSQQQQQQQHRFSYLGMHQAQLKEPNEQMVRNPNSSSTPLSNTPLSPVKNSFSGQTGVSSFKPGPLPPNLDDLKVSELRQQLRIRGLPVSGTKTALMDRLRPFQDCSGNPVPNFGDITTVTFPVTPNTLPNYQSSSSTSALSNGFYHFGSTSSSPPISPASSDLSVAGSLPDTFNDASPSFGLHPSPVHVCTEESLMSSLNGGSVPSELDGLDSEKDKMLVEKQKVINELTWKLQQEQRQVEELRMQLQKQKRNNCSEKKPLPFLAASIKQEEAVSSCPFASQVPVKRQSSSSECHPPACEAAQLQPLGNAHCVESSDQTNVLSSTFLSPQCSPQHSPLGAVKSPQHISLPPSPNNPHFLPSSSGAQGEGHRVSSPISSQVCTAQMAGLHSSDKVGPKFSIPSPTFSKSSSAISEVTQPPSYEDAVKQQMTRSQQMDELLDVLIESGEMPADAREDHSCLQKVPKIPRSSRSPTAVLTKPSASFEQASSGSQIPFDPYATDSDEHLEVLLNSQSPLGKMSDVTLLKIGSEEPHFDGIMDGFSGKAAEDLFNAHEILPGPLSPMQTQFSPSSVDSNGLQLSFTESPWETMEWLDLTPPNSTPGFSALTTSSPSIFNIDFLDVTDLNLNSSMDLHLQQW
The experiment is described as follows: affinity purification with mass spectrometry; immunoprecipitation with antibody against Flag from 293T-MYOCD 3×FLAG cells (control: 293T-GFP 3×FLAG); SDS-PAGE, silver staining, in-gel digestion, LC-MS.

“MEP50 (endogenous, 293T) (from UniProt Q9BQA1 1-342)”: the binding entry is reported as “binds”.

Take “PRMT5 (endogenous, 293T) (from UniProt O14744 1-637)”: the binding entry is “binds”.
